{"source": "PubChem BioAssay AID1259299 (Sanger Institute, 2017)", "aim": "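Kinases and colorectal mutated genes needed by colorectal cancer cells, with or without drugs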 (primary screen)", "system": "human CAR1 colorectal cancer cells", "knock-down reagent": "siRNA pool against human genes", "treatment": "anchor drug BYL719 1 µM, cetuximab 5 µg/ml or trametinib 10 nM, or DMSO vehicle alone; exposure length not given", "measurement": "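Mean replicate viability versus non-targeting controls, turned into robust z-scores, plus drug synergy scores for BYL719, cetuximab and trametinib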", "scale": "viability robust z-score, knock-down alone: higher = more viable cells", "call rule": "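a gene is called essential if its knock-down-alone viability z-score drops under -3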", "calls": "active = essential (knock-down alone); inactive = no change", "note": "This is an unselected part of 794 reagents. Of all reagents, 9 (1.1%) were called active. 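Calls rest on knock-down alone; synergy scores play no part in calls, and no gene passed the synergy cut.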 Unmarked entries are inactive. Further read-outs or replicates are left out here. Reagent sequences are not shown. The record does not give: the amount of reagent, the time to read-out."}
{"Target gene": "GK2 (GeneID 2712)", "viability robust z-score, knock-down alone": 0.789}
{"Target gene": "TAF1 (GeneID 6872)", "viability robust z-score, knock-down alone": -0.311}
{"Target gene": "MAP3K15 (GeneID 389840)", "viability robust z-score, knock-down alone": -0.123}
{"Target gene": "CDK12 (GeneID 51755)", "viability robust z-score, knock-down alone": 0.636}
{"Target gene": "FOXP1 (GeneID 27086)", "viability robust z-score, knock-down alone": -0.601}
{"Target gene": "STK11 (GeneID 6794)", "viability robust z-score, knock-down alone": -1.46}
{"Target gene": "LIMK1 (GeneID 3984)", "viability robust z-score, knock-down alone": -0.151}
{"Target gene": "DGUOK (GeneID 1716)", "viability robust z-score, knock-down alone": 0.286}
{"Target gene": "CRIM1 (GeneID 51232)", "viability robust z-score, knock-down alone": -0.00119}
{"Target gene": "ITPKB (GeneID 3707)", "viability robust z-score, knock-down alone": 0.789}
{"Target gene": "ALPK2 (GeneID 115701)", "viability robust z-score, knock-down alone": 0.789}
{"Target gene": "MAP2K2 (GeneID 5605)", "viability robust z-score, knock-down alone": 0.757}
{"Target gene": "GRK7 (GeneID 131890)", "viability robust z-score, knock-down alone": -0.132}
{"Target gene": "RET (GeneID 5979)", "viability robust z-score, knock-down alone": 0.789}
{"Target gene": "MPP1 (GeneID 4354)", "viability robust z-score, knock-down alone": 0.789}
{"Target gene": "ACVRL1 (GeneID 94)", "viability robust z-score, knock-down alone": 0.0932}
{"Target gene": "SRGAP3 (GeneID 9901)", "viability robust z-score, knock-down alone": 0.789}
{"Target gene": "ACO1 (GeneID 48)", "viability robust z-score, knock-down alone": 0.308}
{"Target gene": "AK1 (GeneID 203)", "viability robust z-score, knock-down alone": 0.789}
{"Target gene": "CDK18 (GeneID 5129)", "viability robust z-score, knock-down alone": 0.789}
{"Target gene": "SIK1 (GeneID 150094)", "viability robust z-score, knock-down alone": -0.277}
{"Target gene": "FGR (GeneID 2268)", "viability robust z-score, knock-down alone": 0.0335}
{"Target gene": "PDGFRA (GeneID 5156)", "viability robust z-score, knock-down alone": -0.0149}
{"Target gene": "PIP5K1A (GeneID 8394)", "viability robust z-score, knock-down alone": -1.2}
{"Target gene": "CDK19 (GeneID 23097)", "viability robust z-score, knock-down alone": -1.12}
{"Target gene": "IPPK (GeneID 64768)", "viability robust z-score, knock-down alone": 0.522}
{"Target gene": "TRIO (GeneID 7204)", "viability robust z-score, knock-down alone": -1.23}
{"Target gene": "IRAK4 (GeneID 51135)", "viability robust z-score, knock-down alone": -0.595}
{"Target gene": "ALDH18A1 (GeneID 5832)", "viability robust z-score, knock-down alone": -0.243}
{"Target gene": "MAP3K1 (GeneID 4214)", "viability robust z-score, knock-down alone": 0.283}
{"Target gene": "MAP2K7 (GeneID 5609)", "viability robust z-score, knock-down alone": 0.638}
{"Target gene": "ARID1A (GeneID 8289)", "viability robust z-score, knock-down alone": 0.789}
{"Target gene": "PIP5K1C (GeneID 23396)", "viability robust z-score, knock-down alone": -1.19}
{"Target gene": "NTN4 (GeneID 59277)", "viability robust z-score, knock-down alone": -0.339}
{"Target gene": "MKNK2 (GeneID 2872)", "viability robust z-score, knock-down alone": -0.465}
{"Target gene": "PRKG1 (GeneID 5592)", "viability robust z-score, knock-down alone": 0.255}

Quoted from the entries so far, 6 entries:
{"Target gene": "RET (GeneID 5979)", "viability robust z-score, knock-down alone": 0.789}
{"Target gene": "MPP1 (GeneID 4354)", "viability robust z-score, knock-down alone": 0.789}
{"Target gene": "ACVRL1 (GeneID 94)", "viability robust z-score, knock-down alone": 0.0932}
{"Target gene": "SRGAP3 (GeneID 9901)", "viability robust z-score, knock-down alone": 0.789}
{"Target gene": "ACO1 (GeneID 48)", "viability robust z-score, knock-down alone": 0.308}
{"Target gene": "AK1 (GeneID 203)", "viability robust z-score, knock-down alone": 0.789}
